Patent US20180354988A1 (University of California, published 2018)
Changes are numbered by the printed parent chain. Results are given in words; binding and its absence hold for the method and conditions named. Some binding calls cover weakened binding; strength is not graded here. One block for each binder: values may come before it.

Amino acid sequences for entries named in this document (tags omitted). A change or cut given only in a name is not applied to a line headed by its entry.
UniProt A8A705: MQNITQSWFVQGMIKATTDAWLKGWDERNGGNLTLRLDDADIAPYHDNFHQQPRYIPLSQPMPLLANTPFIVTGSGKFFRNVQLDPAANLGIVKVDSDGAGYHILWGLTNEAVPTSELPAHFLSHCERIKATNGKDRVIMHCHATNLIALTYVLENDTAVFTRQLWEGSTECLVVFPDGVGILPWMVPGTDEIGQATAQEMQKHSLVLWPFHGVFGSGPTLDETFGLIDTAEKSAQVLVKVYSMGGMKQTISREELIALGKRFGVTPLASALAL

Tests used:
[1] = target: ^C18C98RhuA (Escherichia coli O9:H4 (strain HS)) (UniProt A8A705); test: self-assembly, TEM
[2] = target: ^C22C98RhuA (Escherichia coli O9:H4 (strain HS)) (UniProt A8A705); test: self-assembly, TEM

- binding [1]: binds
B1: ^C18C98RhuA (enzyme)
chain: MQNITQSWFVQGMIKATCDAWLKGWDERNGGNLTLRLDDADIAPYHDNFHQQPRYIPLSQPMPLLANTPFIVTGSGKFFRNVQLDPAANLGIVKVDSCGAGYHILWGLTNEAVPTSELPAHFLSHSERIKATNGKDRVIMHCHATNLIALTYVLENDTAVFTRQLWEGSTECLVVFPDGVGILPWMVPGTDAIGQATAQEMQKHSLVLWPFHGVFGSGPTLDETFGLIDTAEKSAQVLVKVYSMGGMKQTISREELIALGKRFGVTPLASALAL

- binding [2]: binds
B2: ^C22C98RhuA (enzyme)
chain: B1 chain with C18T, L22C
